# Article PMC6414029, “Utilisation of the Prestwick Chemical Library to identify drugs that inhibit the growth of mycobacteria” (PLoS ONE, 2019)
# Where a name gives a salt, the structure may show the parent alone.
# Test system: HepG2 cells
# Assay: HepG2 cytotoxicity assay (CellTitre-Glo)
# Format: cell-based
# Details: Homo sapiens, 48 hours
# Protocol: Actively growing HepG2 cells were removed from a T-175 tissue culture flask with 5 mL of Eagle’s MEM containing 10% FBS/1%NEAA/1% Penicillin and Streptomycin) and mixed with gentle pipetting. […] The cell suspension was added to 250 mL of the same medium at a final density of […]. […] Plates were allowed to incubate at 37°C at a relative humidity of 80% and 5% CO2 for 48 hours. After incubation, the plates were allowed to equilibrate at room temperature for 30 mins before 25 μL of CellTitre-Glo (Promega) reagent was added to each well using a multichannel pipette. Plates were left at room temperature for 30 mins before relative luminescence was read using a BMG Labtech POLARstar Omega plate reader.
smiles,measurement,value
CCN(CC)CCOc1ccc(C(=C(Cl)c2ccccc2)c2ccccc2)cc1 [Clomiphene citrate],IC50,35 µM
